Taken from: PubChem BioAssay AID1053208 (Peter MacCallum Cancer Centre, 2014)
The deposit covers about 17,000 reagents; below is a random part of them. Of all reagents, 788 (4.7%) were called active. 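Calls rest on z-score classes alone; an extra cut-off of viability at most 70% of control was not applied to them.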 Further read-outs or replicates are left out here.

Aim: 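Genes whose silencing cuts survival of bone tumour cells only with doxorubicin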 (primary screen)
Cells: mouse osteosarcoma cells, early-passage culture from an engineered mouse model of fibroblastic bone tumour
Knock-down reagent: siRNA pool against mouse genes, 40 nM
Time to read-out: about 120 h (48 h before drug, then 72 h with drug)
Conditions: doxorubicin 100 nM for 72 h, roughly 30-40% inhibitory dose
Measured: 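Viability read as ATP luminescence after 72 h of 100 nM doxorubicin or none, duplicate wells averaged, scaled to non-targeting siRNA, then expressed as robust z-scores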
Reading the numbers: viability z-score with doxorubicin: higher = more viable cells under doxorubicin; viability z-score without drug: higher = more viable cells with knock-down alone; z-score of drug to no-drug ratio: higher = less drug sensitisation by knock-down
Hit rule: 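Called active if knock-down leaves viability unchanged without drug (z within -2 to 2) but lowers it with doxorubicin (z at or under -2)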

target gene,PubChem SID,combined z-score class,viability z-score with doxorubicin,viability z-score without drug,z-score of drug to no-drug ratio,outcome
1110004F10Rik (RIKEN cDNA 1110004F10 gene),SID152320681,no change with or without drug,-1.12,0.34,-1.24,inactive
Mcm9,SID152323244,high cell count without drug only,1.57,2.02,0.34,inactive
4930465K10Rik (RIKEN cDNA 4930465K10 gene),SID152331181,low cell count with doxorubicin only,-2.92,1.52,-3.71,active
"Atp6v0a1 (ATPase, H+ transporting, lysosomal V0 subunit A1)",SID152300075,no change with or without drug,0.56,-0.67,1.24,inactive
Neurl4 (neuralized E3 ubiquitin protein ligase 4),SID152278609,no change with or without drug,-0.45,-1.52,0.79,inactive
Astn1 (astrotactin 1),SID152314299,no change with or without drug,-0.22,-0.17,0,inactive
Gmpr2 (guanosine monophosphate reductase 2),SID152295116,no change with or without drug,0,-0.17,0.22,inactive
Slc4a10,SID152262108,no change with or without drug,-0.67,-0.17,-0.45,inactive
Wwtr1 (WW domain containing transcription regulator 1),SID152276045,no change with or without drug,-0.45,-0.84,0.22,inactive
"Pkdcc (protein kinase domain containing, cytoplasmic)",SID152282430,no change with or without drug,-0.11,-1.52,1.12,inactive
Trmt61a (tRNA methyltransferase 61A),SID152275689,no change with or without drug,-0.67,-0.67,-0.11,inactive
Has2 (hyaluronan synthase 2),SID152279308,no change with or without drug,0.79,0.51,0.56,inactive
Csrnp3 (cysteine-serine-rich nuclear protein 3),SID152296010,no change with or without drug,0.45,0.84,0,inactive
Tat (tyrosine aminotransferase),SID152265790,no change with or without drug,0.67,-0.17,0.9,inactive
Or51f23b (olfactory receptor family 51 subfamily F member 23B),SID152297856,low cell count with and without drug,-2.25,-2.02,-1.01,inactive
"Fanci (Fanconi anemia, complementation group I)",SID152305647,no change with or without drug,-0.67,0.84,-1.12,inactive
Dennd6a (DENN domain containing 6A),SID152291049,no change with or without drug,0.67,-0.17,0.9,inactive
"Atp6v0e2 (ATPase, H+ transporting, lysosomal V0 subunit E2)",SID152335631,high cell count without drug only,1.24,2.87,-0.45,inactive
Kif5a (kinesin family member 5A),SID152332465,no change with or without drug,-1.12,-0.34,-0.9,inactive
Mrps18b (mitochondrial ribosomal protein S18B),SID152312393,low cell count without drug only,-0.67,-2.87,1.69,inactive
Vegfb (vascular endothelial growth factor B),SID152278662,low cell count with and without drug,-2.7,-2.02,-1.57,inactive
BC021340,SID152298762,no change with or without drug,1.57,0.17,1.69,inactive
Zfp385a (zinc finger protein 385A),SID152274789,no change with or without drug,0,-1.18,1.01,inactive
Surf2 (surfeit gene 2),SID152277064,no change with or without drug,0,0.51,-0.22,inactive
Aknad1 (AKNA domain containing 1),SID152310447,no change with or without drug,0.11,1.85,-0.9,inactive
Txndc11 (thioredoxin domain containing 11),SID152274746,high cell count with doxorubicin only,2.25,0.17,2.36,inactive
Kin (Kin17 DNA and RNA binding protein),SID152310908,no change with or without drug,-0.9,-0.67,-0.34,inactive
Tac2 (tachykinin 2),SID152305276,no change with or without drug,0.22,-0.34,0.56,inactive
Folh1 (folate hydrolase 1),SID152304443,no change with or without drug,-0.79,1.18,-1.46,inactive
Stard5 (StAR related lipid transfer domain containing 5),SID152267093,no change with or without drug,1.35,1.52,0.45,inactive

Limited to “combined z-score class”, for 4 of the entries above:
Trmt61a (tRNA methyltransferase 61A) [SID152275689]: no change with or without drug
Has2 (hyaluronan synthase 2) [SID152279308]: no change with or without drug
Csrnp3 (cysteine-serine-rich nuclear protein 3) [SID152296010]: no change with or without drug
Tat (tyrosine aminotransferase) [SID152265790]: no change with or without drug

The listing continues.
target gene,PubChem SID,combined z-score class,viability z-score with doxorubicin,viability z-score without drug,z-score of drug to no-drug ratio,outcome
Ly9 (lymphocyte antigen 9),SID152314229,no change with or without drug,0.9,0.17,0.9,inactive
Prr15 (proline rich 15),SID152288027,no change with or without drug,0.11,0.84,-0.34,inactive
Rplp0 (ribosomal protein lateral stalk subunit P0),SID152314982,low cell count with and without drug,-3.6,-3.04,-1.91,inactive
Il18rap (interleukin 18 receptor accessory protein),SID152331869,no change with or without drug,-0.22,-1.69,1.12,inactive
Arhgdia (Rho GDP dissociation inhibitor alpha),SID152338539,low cell count with doxorubicin only,-2.02,-0.51,-1.69,active
Lrrc19 (leucine rich repeat containing 19),SID152262463,low cell count with and without drug,-2.59,-3.54,-0.22,inactive
Inka2 (inka box actin regulator 2),SID152320466,low cell count with doxorubicin only,-2.36,-0.84,-1.91,active
Or10ak16 (olfactory receptor family 10 subfamily AK member 16),SID152268219,no change with or without drug,0.45,1.52,-0.45,inactive
"Ap1s2 (adaptor-related protein complex 1, sigma 2 subunit)",SID152336700,high cell count without drug only,0.79,2.19,-0.45,inactive
Caskin2 (CASK-interacting protein 2),SID152326142,no change with or without drug,-0.67,0.51,-0.9,inactive
"Tas2r108 (taste receptor, type 2, member 108)",SID152268011,no change with or without drug,-0.9,1.35,-1.69,inactive
Cfap61 (cilia and flagella associated protein 61),SID152290255,high cell count without drug only,-0.45,2.36,-1.69,inactive
Frat1 (frequently rearranged in advanced T cell lymphomas),SID152330017,no change with or without drug,1.91,0.34,1.8,inactive
Samtor (S-adenosylmethionine sensor upstream of mTORC1),SID152317892,no change with or without drug,-0.11,-0.51,0.34,inactive
Reep1 (receptor accessory protein 1),SID152281124,no change with or without drug,1.12,1.01,0.56,inactive
Gltpd2 (glycolipid transfer protein domain containing 2),SID152322429,no change with or without drug,0.67,0.34,0.56,inactive
"Grik2 (glutamate receptor, ionotropic, kainate 2 (beta 2))",SID152325421,no change with or without drug,0.22,-0.17,0.45,inactive
Wdr4 (WD repeat domain 4),SID152306787,no change with or without drug,-1.24,1.18,-1.91,inactive
Tent4a (terminal nucleotidyltransferase 4A),SID152304747,no change with or without drug,1.57,0.51,1.35,inactive
Nrap (nebulin-related anchoring protein),SID152283965,no change with or without drug,-1.24,-0.51,-0.9,inactive
